Data reported in the supplement of paper PMC6411743.
± gives the standard deviation of the averaged measurements. The list shows a part of the results, in another mix than the full data. Most entries show no effect beyond the scatter of the controls.

Sequences of proteins named here, by UniProt entry; tags and fusion partners are left off. A change or cut given only in a name is not applied to a line headed by its entry.
UniProt Q8N0Y2: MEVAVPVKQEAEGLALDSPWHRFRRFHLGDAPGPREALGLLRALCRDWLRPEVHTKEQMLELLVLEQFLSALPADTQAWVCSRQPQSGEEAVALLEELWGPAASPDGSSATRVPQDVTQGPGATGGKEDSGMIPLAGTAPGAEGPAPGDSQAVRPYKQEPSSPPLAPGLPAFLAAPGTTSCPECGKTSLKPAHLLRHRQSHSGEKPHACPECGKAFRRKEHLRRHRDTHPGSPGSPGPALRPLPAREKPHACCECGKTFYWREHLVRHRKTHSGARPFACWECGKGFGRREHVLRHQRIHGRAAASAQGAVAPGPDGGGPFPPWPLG
UniProt Q8IXS8: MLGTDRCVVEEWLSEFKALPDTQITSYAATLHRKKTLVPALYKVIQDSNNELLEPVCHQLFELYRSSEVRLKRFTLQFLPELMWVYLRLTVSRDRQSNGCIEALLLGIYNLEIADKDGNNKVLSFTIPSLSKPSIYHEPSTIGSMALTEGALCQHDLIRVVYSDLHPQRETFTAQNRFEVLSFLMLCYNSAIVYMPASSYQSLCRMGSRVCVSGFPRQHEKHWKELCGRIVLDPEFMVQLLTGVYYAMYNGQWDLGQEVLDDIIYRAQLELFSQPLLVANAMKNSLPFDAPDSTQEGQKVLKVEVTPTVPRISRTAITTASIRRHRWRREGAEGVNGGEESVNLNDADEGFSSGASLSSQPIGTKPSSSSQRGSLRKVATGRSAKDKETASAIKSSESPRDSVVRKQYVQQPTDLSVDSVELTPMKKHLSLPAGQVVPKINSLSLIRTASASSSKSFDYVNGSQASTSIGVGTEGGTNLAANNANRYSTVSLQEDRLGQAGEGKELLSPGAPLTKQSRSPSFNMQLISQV
UniProt Q8N2F6: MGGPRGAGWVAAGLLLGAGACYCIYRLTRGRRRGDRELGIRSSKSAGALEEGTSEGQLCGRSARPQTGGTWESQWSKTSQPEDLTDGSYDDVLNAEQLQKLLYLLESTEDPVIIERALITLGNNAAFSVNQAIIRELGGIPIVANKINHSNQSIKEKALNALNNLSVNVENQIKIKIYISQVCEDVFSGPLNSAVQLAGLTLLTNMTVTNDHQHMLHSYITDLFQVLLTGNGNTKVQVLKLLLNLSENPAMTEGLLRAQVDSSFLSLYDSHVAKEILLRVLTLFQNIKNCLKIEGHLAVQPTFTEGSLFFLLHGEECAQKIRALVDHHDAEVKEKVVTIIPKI
UniProt Q8NDV3: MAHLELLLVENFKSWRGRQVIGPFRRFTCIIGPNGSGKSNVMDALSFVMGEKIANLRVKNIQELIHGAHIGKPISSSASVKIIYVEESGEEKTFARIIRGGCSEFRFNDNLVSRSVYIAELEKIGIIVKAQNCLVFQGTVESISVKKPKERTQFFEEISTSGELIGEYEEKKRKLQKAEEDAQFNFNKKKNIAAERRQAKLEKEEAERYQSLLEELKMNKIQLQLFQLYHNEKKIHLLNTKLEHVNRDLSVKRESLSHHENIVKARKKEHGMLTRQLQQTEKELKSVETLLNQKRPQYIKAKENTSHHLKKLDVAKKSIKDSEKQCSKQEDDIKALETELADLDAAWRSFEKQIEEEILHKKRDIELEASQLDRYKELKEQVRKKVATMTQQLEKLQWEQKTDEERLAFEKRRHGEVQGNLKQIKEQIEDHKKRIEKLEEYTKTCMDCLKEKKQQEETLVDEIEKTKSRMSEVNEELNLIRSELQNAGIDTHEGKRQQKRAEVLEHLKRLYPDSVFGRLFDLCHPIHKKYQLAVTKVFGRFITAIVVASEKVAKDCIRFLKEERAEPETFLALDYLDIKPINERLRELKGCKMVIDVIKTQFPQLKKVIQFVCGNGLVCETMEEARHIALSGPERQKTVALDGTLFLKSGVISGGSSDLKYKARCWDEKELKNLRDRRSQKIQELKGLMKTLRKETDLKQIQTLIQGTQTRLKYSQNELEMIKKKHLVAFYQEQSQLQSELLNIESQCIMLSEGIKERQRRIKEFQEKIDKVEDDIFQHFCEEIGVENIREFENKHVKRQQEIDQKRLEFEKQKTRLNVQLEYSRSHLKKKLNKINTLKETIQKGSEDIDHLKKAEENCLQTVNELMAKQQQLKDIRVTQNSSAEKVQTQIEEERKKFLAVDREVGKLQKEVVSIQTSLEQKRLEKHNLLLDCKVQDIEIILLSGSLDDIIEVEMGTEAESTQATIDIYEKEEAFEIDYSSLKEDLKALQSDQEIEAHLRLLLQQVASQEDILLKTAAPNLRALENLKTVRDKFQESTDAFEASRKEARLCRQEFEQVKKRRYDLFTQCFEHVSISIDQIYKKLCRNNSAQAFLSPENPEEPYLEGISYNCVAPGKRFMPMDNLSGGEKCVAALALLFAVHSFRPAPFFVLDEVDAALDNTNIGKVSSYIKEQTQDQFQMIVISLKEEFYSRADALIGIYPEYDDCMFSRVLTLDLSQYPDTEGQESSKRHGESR
UniProt Q8IYM9: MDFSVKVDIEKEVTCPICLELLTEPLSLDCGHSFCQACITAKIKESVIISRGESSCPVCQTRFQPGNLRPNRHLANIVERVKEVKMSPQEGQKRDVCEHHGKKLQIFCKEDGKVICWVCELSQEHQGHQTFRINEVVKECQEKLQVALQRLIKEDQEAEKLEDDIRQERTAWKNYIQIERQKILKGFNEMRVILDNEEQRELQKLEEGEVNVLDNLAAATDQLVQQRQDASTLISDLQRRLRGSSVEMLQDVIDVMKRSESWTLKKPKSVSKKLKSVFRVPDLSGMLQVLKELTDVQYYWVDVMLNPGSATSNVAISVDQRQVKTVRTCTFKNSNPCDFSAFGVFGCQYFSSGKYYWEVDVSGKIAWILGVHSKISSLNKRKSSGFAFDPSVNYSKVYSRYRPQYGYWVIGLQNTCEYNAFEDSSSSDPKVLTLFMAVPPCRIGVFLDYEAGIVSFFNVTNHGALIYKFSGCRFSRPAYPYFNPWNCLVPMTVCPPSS
UniProt Q8IYS1: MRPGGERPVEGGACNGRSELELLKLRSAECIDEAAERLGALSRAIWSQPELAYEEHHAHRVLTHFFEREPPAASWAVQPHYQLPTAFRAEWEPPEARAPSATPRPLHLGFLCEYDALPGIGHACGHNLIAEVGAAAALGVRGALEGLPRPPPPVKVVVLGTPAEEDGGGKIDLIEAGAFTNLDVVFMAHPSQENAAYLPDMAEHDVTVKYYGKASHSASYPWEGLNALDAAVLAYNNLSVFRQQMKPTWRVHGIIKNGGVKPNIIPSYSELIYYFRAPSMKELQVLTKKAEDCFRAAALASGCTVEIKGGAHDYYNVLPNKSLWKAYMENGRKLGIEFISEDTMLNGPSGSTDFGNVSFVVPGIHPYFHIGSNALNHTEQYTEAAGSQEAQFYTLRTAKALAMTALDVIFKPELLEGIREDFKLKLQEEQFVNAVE
UniProt Q8N4J0: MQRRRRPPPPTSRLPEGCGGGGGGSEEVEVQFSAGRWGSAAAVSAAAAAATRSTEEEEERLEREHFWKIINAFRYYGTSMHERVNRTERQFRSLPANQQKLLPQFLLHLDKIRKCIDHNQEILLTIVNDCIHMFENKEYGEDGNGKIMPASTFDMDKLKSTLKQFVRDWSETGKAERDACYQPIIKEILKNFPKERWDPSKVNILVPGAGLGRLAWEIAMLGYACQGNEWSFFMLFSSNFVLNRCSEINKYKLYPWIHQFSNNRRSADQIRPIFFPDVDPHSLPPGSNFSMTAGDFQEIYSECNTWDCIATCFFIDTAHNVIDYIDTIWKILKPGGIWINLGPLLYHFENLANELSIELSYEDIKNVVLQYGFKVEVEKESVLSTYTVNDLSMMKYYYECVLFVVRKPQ
UniProt Q8NHV1: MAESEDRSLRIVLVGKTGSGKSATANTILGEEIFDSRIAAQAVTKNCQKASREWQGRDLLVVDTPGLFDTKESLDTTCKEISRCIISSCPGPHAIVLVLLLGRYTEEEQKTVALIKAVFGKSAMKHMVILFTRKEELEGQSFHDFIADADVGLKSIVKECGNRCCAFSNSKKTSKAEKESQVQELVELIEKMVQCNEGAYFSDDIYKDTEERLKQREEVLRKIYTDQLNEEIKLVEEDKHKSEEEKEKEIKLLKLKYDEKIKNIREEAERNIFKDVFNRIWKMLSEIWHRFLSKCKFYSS
UniProt Q8IXQ5, whole entry: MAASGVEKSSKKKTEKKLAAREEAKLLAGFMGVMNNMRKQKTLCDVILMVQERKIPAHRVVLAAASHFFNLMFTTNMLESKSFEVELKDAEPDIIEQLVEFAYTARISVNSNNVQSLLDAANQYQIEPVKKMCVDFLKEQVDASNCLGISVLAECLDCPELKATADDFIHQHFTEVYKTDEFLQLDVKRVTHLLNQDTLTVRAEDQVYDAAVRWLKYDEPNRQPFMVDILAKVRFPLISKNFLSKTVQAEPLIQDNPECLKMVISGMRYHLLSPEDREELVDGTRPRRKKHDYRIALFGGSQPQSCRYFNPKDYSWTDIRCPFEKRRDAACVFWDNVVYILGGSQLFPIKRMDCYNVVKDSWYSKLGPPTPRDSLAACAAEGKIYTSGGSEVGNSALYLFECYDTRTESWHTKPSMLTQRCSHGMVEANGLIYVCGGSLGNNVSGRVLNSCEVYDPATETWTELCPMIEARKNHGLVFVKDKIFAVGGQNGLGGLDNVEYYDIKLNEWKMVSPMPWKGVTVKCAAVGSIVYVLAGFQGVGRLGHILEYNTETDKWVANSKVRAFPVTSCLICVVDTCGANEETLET
UniProt Q8TB36: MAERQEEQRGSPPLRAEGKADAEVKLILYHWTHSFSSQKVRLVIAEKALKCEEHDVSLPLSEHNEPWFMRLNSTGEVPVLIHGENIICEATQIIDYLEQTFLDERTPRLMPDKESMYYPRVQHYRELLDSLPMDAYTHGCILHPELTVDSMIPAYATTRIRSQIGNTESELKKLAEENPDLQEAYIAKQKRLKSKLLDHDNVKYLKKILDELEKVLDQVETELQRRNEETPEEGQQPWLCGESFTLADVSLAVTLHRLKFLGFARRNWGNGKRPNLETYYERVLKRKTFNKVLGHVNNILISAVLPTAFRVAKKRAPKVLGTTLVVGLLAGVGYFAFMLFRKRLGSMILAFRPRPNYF
UniProt Q8IZ21: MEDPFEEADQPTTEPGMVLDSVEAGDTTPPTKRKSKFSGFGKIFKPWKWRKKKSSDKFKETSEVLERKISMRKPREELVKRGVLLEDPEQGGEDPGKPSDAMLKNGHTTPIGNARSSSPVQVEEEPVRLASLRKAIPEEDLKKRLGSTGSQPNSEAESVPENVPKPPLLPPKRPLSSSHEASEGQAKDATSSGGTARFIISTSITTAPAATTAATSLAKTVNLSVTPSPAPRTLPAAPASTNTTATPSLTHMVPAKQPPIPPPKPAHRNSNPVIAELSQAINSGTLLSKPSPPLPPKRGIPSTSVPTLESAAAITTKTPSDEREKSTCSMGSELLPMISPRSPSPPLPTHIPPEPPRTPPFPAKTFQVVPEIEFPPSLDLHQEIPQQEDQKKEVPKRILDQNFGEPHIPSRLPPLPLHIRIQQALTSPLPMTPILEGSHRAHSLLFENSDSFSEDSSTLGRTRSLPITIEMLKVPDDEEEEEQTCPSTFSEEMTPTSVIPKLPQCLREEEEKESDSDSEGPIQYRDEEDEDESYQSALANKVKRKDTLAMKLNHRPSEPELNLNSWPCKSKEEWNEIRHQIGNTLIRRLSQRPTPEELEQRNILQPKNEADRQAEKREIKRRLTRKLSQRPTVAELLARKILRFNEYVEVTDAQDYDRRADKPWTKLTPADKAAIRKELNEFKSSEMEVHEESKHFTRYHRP
UniProt Q8N9F7: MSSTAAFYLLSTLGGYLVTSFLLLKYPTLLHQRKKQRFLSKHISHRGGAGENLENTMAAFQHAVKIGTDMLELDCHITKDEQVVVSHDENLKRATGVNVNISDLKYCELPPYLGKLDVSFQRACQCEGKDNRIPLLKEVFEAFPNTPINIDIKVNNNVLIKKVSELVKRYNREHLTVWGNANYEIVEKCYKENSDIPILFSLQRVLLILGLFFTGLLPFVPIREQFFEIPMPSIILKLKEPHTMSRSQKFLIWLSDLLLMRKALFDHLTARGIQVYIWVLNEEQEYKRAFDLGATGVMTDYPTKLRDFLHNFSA
UniProt Q8NF37: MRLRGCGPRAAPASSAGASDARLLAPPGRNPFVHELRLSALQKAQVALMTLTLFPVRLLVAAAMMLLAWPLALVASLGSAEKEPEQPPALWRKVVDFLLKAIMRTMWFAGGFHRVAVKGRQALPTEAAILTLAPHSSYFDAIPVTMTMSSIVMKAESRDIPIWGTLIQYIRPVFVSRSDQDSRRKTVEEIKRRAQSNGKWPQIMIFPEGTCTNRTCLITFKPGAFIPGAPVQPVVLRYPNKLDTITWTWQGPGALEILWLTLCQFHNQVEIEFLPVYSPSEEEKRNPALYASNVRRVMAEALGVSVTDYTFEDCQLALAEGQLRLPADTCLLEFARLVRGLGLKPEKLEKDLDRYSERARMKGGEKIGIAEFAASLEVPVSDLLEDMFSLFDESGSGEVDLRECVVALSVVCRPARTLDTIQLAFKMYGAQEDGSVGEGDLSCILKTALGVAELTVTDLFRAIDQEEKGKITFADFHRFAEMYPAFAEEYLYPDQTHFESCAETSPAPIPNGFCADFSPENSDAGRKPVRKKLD

Compound: Nc1ncnc2c1ncn2[C@@H]1O[C@H](COP(=O)(O)OP(=O)(O)OP(=O)(O)O)[C@@H](O)[C@H]1O [adenosine triphosphate]
Test: NP40-soluble protein abundance relative to vehicle (solubility fold change) (ratio); higher = more soluble protein in presence of ATP
Outline: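 Jurkat crude lysate prepared with a Dounce homogeniser was treated at eight concentrations spanning 0.1 to 10 mM, 10 min at room temperature then 3 min at 37 °C. Solubilisation with 0.8% NP40 and benzonase and ultracentrifugation preceded TMT labelling of the supernatant for LC-MS/MS. Fold change against the detergent-processed vehicle was determined per replicate from vsn-normalised intensities, across three independent experiments.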

**Q.** With GCC2 (UniProt Q8IWJ2) as the target, how does the NP40-soluble protein abundance (concentration: 0.1mM) read?
**A.** 0.9954 ± 0.0065

**Q.** What about the NP40-soluble protein abundance (concentration: 0.5mM) of the same target?
**A.** 1 ± 0.04

**Q.** With GALNT6 (UniProt Q8NCL4) as the target, how does the NP40-soluble protein abundance (concentration: 0.1mM) read?
**A.** 1.05 ± 0.12

**Q.** And the NP40-soluble protein abundance (concentration: 0.5mM)?
**A.** 1.15 ± 0.18

**Q.** For UniProt Q8N0Y2 and related entries, which NP40-soluble protein abundance (concentration: 0.1mM) is on record?
**A.** 0.972 ± 0.13

**Q.** And the NP40-soluble protein abundance (concentration: 0.5mM)?
**A.** 1.073 ± 0.0015

**Q.** Which results are given for FAM126B (UniProt Q8IXS8)?
**A.** NP40-soluble protein abundance (concentration: 0.1mM): 1.03 ± 0.026; NP40-soluble protein abundance (concentration: 0.5mM): 0.957 ± 0.024

**Q.** UniProt Q8N2F6 and related entries was tested. Which NP40-soluble protein abundance (concentration: 0.1mM) did it give?
**A.** 1.02 ± 0.055

**Q.** What about the NP40-soluble protein abundance (concentration: 0.5mM) of the same target?
**A.** 1.01 ± 0.041

**Q.** With NECAP1 (UniProt Q8NC96) as the target, how does the NP40-soluble protein abundance (concentration: 0.1mM) read?
**A.** 1.02 ± 0.027

**Q.** And the NP40-soluble protein abundance (concentration: 0.5mM)?
**A.** 0.928 ± 0.19

**Q.** Which results are given for RHOT2 (UniProt Q8IXI1)?
**A.** NP40-soluble protein abundance (concentration: 0.1mM): 1.06 ± 0.067; NP40-soluble protein abundance (concentration: 0.5mM): 1.1 ± 0.1

**Q.** With ZNF740 (UniProt Q8NDX6) as the target, how does the NP40-soluble protein abundance (concentration: 0.1mM) read?
**A.** 0.976 ± 0.16

**Q.** And the NP40-soluble protein abundance (concentration: 0.5mM)?
**A.** 0.998 ± 0.077

**Q.** What does the source list for CLYBL (UniProt Q8N0X4)?
**A.** NP40-soluble protein abundance (concentration: 0.1mM): 1.01 ± 0.052; NP40-soluble protein abundance (concentration: 0.5mM): 1.05 ± 0.066

**Q.** CNPY4 (UniProt Q8N129) was tested. Which NP40-soluble protein abundance (concentration: 0.1mM) did it give?
**A.** 1.03 ± 0.073

**Q.** And the NP40-soluble protein abundance (concentration: 0.5mM)?
**A.** 0.929 ± 0.14

**Q.** NFATC2IP (UniProt Q8NCF5) was tested. Which NP40-soluble protein abundance (concentration: 0.1mM) did it give?
**A.** 1.18 ± 0.29

**Q.** And the NP40-soluble protein abundance (concentration: 0.5mM)?
**A.** 0.904 ± 0.051

**Q.** How did the NP40-soluble protein abundance (concentration: 0.1mM) turn out when UniProt Q8NDV3 and related entries was run?
**A.** 0.941 ± 0.081

**Q.** And the NP40-soluble protein abundance (concentration: 0.5mM)?
**A.** 1.01 ± 0.068

**Q.** How did the NP40-soluble protein abundance (concentration: 0.1mM) turn out when UniProt Q8NDD1 and related entries was run?
**A.** 0.974 ± 0.089

**Q.** And the NP40-soluble protein abundance (concentration: 0.5mM)?
**A.** 0.983 ± 0.069

**Q.** What does the source list for TRIM22 (UniProt Q8IYM9)?
**A.** NP40-soluble protein abundance (concentration: 0.1mM): 1.01 ± 0.043; NP40-soluble protein abundance (concentration: 0.5mM): 1 ± 0.037

**Q.** How did the NP40-soluble protein abundance (concentration: 0.1mM) turn out when ZADH2 (UniProt Q8N4Q0) was run?
**A.** 1.02 ± 0.047

**Q.** What about the NP40-soluble protein abundance (concentration: 0.5mM) of the same target?
**A.** 0.991 ± 0.027

**Q.** How did the NP40-soluble protein abundance (concentration: 0.1mM) turn out when PM20D2 (UniProt Q8IYS1) was run?
**A.** 1.05 ± 0.027

**Q.** And the NP40-soluble protein abundance (concentration: 0.5mM)?
**A.** 1.02 ± 0.05

**Q.** With UniProt Q8TAA3-5|Q8TAA3 as the target, how does the NP40-soluble protein abundance (concentration: 0.1mM) read?
**A.** 0.965 ± 0.036

**Q.** What about the NP40-soluble protein abundance (concentration: 0.5mM) of the same target?
**A.** 0.921 ± 0.018

**Q.** Which results are given for UniProt Q8NDI1-2|Q8NDI1-3|Q8NDI1?
**A.** NP40-soluble protein abundance (concentration: 0.1mM): 0.981 ± 0.022; NP40-soluble protein abundance (concentration: 0.5mM): 0.963 ± 0.046

**Q.** Which NP40-soluble protein abundance (concentration: 0.1mM) does the source give for UniProt Q8IX90 here?
**A.** 0.9731 ± 0.0067

**Q.** And the NP40-soluble protein abundance (concentration: 0.5mM)?
**A.** 0.9868 ± 0.0088

**Q.** Which NP40-soluble protein abundance (concentration: 0.1mM) does the source give for UniProt Q8N9N5 and related entries here?
**A.** 1.01 ± 0.052

**Q.** What about the NP40-soluble protein abundance (concentration: 0.5mM) of the same target?
**A.** 1.01 ± 0.067

**Q.** UniProt Q8N9M1 and related entries was tested. Which NP40-soluble protein abundance (concentration: 0.1mM) did it give?
**A.** 0.97 ± 0.035

**Q.** And the NP40-soluble protein abundance (concentration: 0.5mM)?
**A.** 0.92 ± 0.026

**Q.** For UniProt Q8N4J0, which NP40-soluble protein abundance (concentration: 0.1mM) is on record?
**A.** 1.06 ± 0.13

**Q.** What about the NP40-soluble protein abundance (concentration: 0.5mM) of the same target?
**A.** 1.02 ± 0.084

**Q.** Which results are given for GIMAP7 (UniProt Q8NHV1)?
**A.** NP40-soluble protein abundance (concentration: 0.1mM): 0.972 ± 0.035; NP40-soluble protein abundance (concentration: 0.5mM): 0.97 ± 0.058

**Q.** For UniProt Q8NHM5 and related entries, which NP40-soluble protein abundance (concentration: 0.1mM) is on record?
**A.** 1.02 ± 0.059

**Q.** What about the NP40-soluble protein abundance (concentration: 0.5mM) of the same target?
**A.** 1.05 ± 0.037

**Q.** What does the source list for MICALL1 (UniProt Q8N3F8)?
**A.** NP40-soluble protein abundance (concentration: 0.1mM): 0.966 ± 0.017; NP40-soluble protein abundance (concentration: 0.5mM): 0.961 ± 0.038

**Q.** What does the source list for UBAC2 (UniProt Q8NBM4)?
**A.** NP40-soluble protein abundance (concentration: 0.1mM): 0.988 ± 0.059; NP40-soluble protein abundance (concentration: 0.5mM): 0.98 ± 0.042

**Q.** UniProt Q8IY57 and related entries was tested. Which NP40-soluble protein abundance (concentration: 0.1mM) did it give?
**A.** 1.07 ± 0.12

**Q.** And the NP40-soluble protein abundance (concentration: 0.5mM)?
**A.** 0.917 ± 0.015

**Q.** What does the source list for UniProt Q8ND82 and related entries?
**A.** NP40-soluble protein abundance (concentration: 0.1mM): 1.03 ± 0.037; NP40-soluble protein abundance (concentration: 0.5mM): 1.1 ± 0.036

**Q.** Which NP40-soluble protein abundance (concentration: 0.1mM) does the source give for UniProt Q8NI60 and related entries here?
**A.** 0.972 ± 0.024

**Q.** What about the NP40-soluble protein abundance (concentration: 0.5mM) of the same target?
**A.** 0.999 ± 0.048

**Q.** With UniProt Q8NHY2 and related entries as the target, how does the NP40-soluble protein abundance (concentration: 0.1mM) read?
**A.** 1.02 ± 0.057

**Q.** What about the NP40-soluble protein abundance (concentration: 0.5mM) of the same target?
**A.** 0.977 ± 0.14

**Q.** Which results are given for UniProt Q8IXQ5 and related entries?
**A.** NP40-soluble protein abundance (concentration: 0.1mM): 1.01 ± 0.041; NP40-soluble protein abundance (concentration: 0.5mM): 1 ± 0.059

**Q.** How did the NP40-soluble protein abundance (concentration: 0.1mM) turn out when UniProt Q8NFH5 and related entries was run?
**A.** 1.06 ± 0.14

**Q.** And the NP40-soluble protein abundance (concentration: 0.5mM)?
**A.** 0.98 ± 0.062

**Q.** GDAP1 (UniProt Q8TB36) was tested. Which NP40-soluble protein abundance (concentration: 0.1mM) did it give?
**A.** 0.945 ± 0.038

**Q.** What about the NP40-soluble protein abundance (concentration: 0.5mM) of the same target?
**A.** 0.984 ± 0.076

**Q.** UniProt Q8TAA9 and related entries was tested. Which NP40-soluble protein abundance (concentration: 0.1mM) did it give?
**A.** 1.09 ± 0.16

**Q.** What about the NP40-soluble protein abundance (concentration: 0.5mM) of the same target?
**A.** 1.22 ± 0.11

**Q.** Which results are given for FTSJ3 (UniProt Q8IY81)?
**A.** NP40-soluble protein abundance (concentration: 0.1mM): 0.99 ± 0.041; NP40-soluble protein abundance (concentration: 0.5mM): 1.01 ± 0.048

**Q.** With UniProt Q8IZ21 and related entries as the target, how does the NP40-soluble protein abundance (concentration: 0.1mM) read?
**A.** 0.996 ± 0.013

**Q.** What about the NP40-soluble protein abundance (concentration: 0.5mM) of the same target?
**A.** 0.955 ± 0.023

**Q.** How did the NP40-soluble protein abundance (concentration: 0.1mM) turn out when UniProt Q8N0V3 was run?
**A.** 0.963 ± 0.082

**Q.** And the NP40-soluble protein abundance (concentration: 0.5mM)?
**A.** 0.972 ± 0.06

**Q.** Which NP40-soluble protein abundance (concentration: 0.1mM) does the source give for GDPD1 (UniProt Q8N9F7) here?
**A.** 1.05 ± 0.15

**Q.** And the NP40-soluble protein abundance (concentration: 0.5mM)?
**A.** 1.02 ± 0.14

**Q.** What does the source list for LPCAT1 (UniProt Q8NF37)?
**A.** NP40-soluble protein abundance (concentration: 0.1mM): 1.07 ± 0.11; NP40-soluble protein abundance (concentration: 0.5mM): 1.01 ± 0.059
